# Assay results taken from PubChem BioAssay AID2549 (National Center for Advancing Translational Sciences (NCATS), 2010).
# Protein sequences, listed by entry. Tags and fused reporters are not part of them. Lines headed by an entry give the natural chain unless they say otherwise; changes in a name come on top.
# UniProt P46063: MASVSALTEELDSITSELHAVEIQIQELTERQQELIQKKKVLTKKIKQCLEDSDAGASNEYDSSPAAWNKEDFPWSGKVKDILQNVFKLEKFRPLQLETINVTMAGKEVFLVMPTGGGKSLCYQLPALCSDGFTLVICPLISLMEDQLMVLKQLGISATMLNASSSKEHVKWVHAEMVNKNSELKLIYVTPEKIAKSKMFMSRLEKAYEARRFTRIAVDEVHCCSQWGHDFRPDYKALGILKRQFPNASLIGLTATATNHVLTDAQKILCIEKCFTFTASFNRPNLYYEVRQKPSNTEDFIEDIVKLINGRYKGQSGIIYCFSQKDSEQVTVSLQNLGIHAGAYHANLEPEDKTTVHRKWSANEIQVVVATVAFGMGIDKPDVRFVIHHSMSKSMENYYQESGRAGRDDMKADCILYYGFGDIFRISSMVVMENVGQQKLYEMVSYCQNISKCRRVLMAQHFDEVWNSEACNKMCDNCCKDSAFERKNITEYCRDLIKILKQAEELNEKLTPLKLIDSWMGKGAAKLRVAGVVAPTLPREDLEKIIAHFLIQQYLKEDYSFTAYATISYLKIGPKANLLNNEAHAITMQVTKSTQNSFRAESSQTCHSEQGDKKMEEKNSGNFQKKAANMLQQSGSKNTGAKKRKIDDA
# Hit rate of the full screen: of about 240,000 compounds, about 1,300 (0.54%) were called active. The shares of active, inactive and inconclusive entries below differ from those in the screen. Calls follow the shape of the dose curve; as a rule, active = well fitted inhibition curve with a large enough effect; inconclusive = small, poorly fitted or top-dose-only effect; inactive = flat fitted curve, though single readings scatter. Potencies of inconclusive entries are doubtful fits and often do not repeat.
# Target: ATP-dependent DNA helicase Q1 (Homo sapiens) (UniProt P46063)
# Assay: qHTS Assay for Inhibitors of RecQ-Like Dna Helicase 1 (RECQ1); also: nearly all actives have a fitted effect of over 30% in size;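 as to activity, negative = inhibition: plate controls were vehicle for no effect and no enzyme for full effect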
# Conditions: RECQ1 DNA unwinding, red fluorescence kinetic read; activity, negative = inhibition: at 57.3 µM (top of the series); series mostly up to 57.3 µM
# Outline: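 50 nM RECQ1T1 preincubated 15 min with compound in Tris pH 8.0 buffer with MgCl2, DTT, Tween-20 and 2.5 ug/ml poly(dI-dC); started with 200 nM TAMRA/BHQ-2 forked duplex and 2 mM ATP. Unwinding read as fluorescence (525/598 nm), two reads 2 h apart.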
# Potency is read from the fitted curve at half-maximal effect.
SMILES,Potency,"activity, negative = inhibition"
C/C(N)=C(/C#N)C(=O)COC(=O)C1Cc2ccccc2CN1S(C)(=O)=O (stereo unspecified),"inconclusive: 25.1 µM [inhibitor, partial curve, poor fit]",
CC(=O)N1CCN(CC(=O)Nc2sccc2C#N)CC1,"inconclusive: 0.0891 µM [inhibitor, partial curve, poor fit]",
NC(=O)C[n+]1cccc2ccccc21,inactive,
CN(C)/C=C/C(=O)c1ccc(Br)cc1,"inconclusive: 35.5 µM [inhibitor, single point]",
Cc1cc(C)c2nc(-c3ccccn3)cc(C(=O)Nc3ccc(S(=O)(=O)Nc4cc(C)on4)cc3)c2c1,active: 25.1 µM,
CC1CCN(c2cc(N(C)CCO)c([N+](=O)[O-])c3nonc23)CC1,"inconclusive: 3.55 µM [inhibitor, partial curve, poor fit]",
C=C(C)C(=O)Nc1cccc(C2=NOC3(C2)C[C@H](C(N)=O)N(C(=O)C(c2ccccc2)c2ccccc2)C3)c1 (stereo partly specified),"inconclusive: 22.4 µM [inhibitor, single point]",
CCCSC1=N/C(=C\C=C\c2ccco2)C(=O)S1,active: 7.94 µM,
O=C1CCCC2=C1Sc1ccc(Cl)cc1N2,inactive,
CCOc1ccc(C2C(C#N)=C(N)SC(N)=C2C#N)cc1OC,"inconclusive: 17.8 µM [inhibitor, partial curve]",
COC(=O)Cc1cc(=O)n(-c2nc3ccccc3s2)[nH]1,"inconclusive: 31.6 µM [inhibitor, single point]",
Cc1ccc(/C=N\NC(=O)Cc2cccn2C)o1,"inconclusive: 39.8 µM [inhibitor, single point]",
CC(C)C(=O)NCCc1nc2ccccc2n1C,"inconclusive: 3.55 µM [inhibitor, partial curve]",
COc1ccc(NC(=O)Cc2ccc(Cl)cc2Cl)cn1,"inconclusive: 3.98 µM [inhibitor, single point]",
Fc1cc(F)c2nc(Nc3nc4cc5c(cc4s3)OCO5)sc2c1,"inconclusive: 3.16 µM [inhibitor, full curve, poor fit]",
Cc1cccc(NC(=S)NCC23C=CC(O2)C2C(=O)N(c4ccc(Cl)cc4)C(=O)C23)c1 (stereo unspecified),"inconclusive: 1.58 µM [inhibitor, full curve]",
Cc1ccc(OCC(=O)NNC(=O)CCc2ccccc2)cc1,inactive,
CC1=Nc2ccccc2/C1=C\c1nc(-c2ccc(F)cc2)oc1O,"inconclusive: 35.5 µM [inhibitor, single point]",
O=C(CSCCSCC(=O)c1ccco1)c1ccco1,active: 35.5 µM,
N#CC(C#N)=C1C=C2C=C(N3CCCCCC3)CCC2CC1 (stereo unspecified),active: 28.2 µM,
Cc1ccc(S(=O)(=O)/C(C#N)=C/c2ccccc2OCc2ccccc2)cc1,"inconclusive: 35.5 µM [inhibitor, partial curve, poor fit]",
CCc1ccc(-c2ccc(SCc3ccccn3)nn2)cc1,inactive,

SMILES,Potency,"activity, negative = inhibition"
CC(=O)OCCn1c(C)[n+](CCOC(C)=O)c2cc(Cl)c(Cl)cc21,inactive,
CCOc1ccc2nc(NS(=O)(=O)c3ccc(NC(C)=O)cc3)sc2c1,"inconclusive: 3.16 µM [inhibitor, partial curve]",
CCC1CCCCN1CCCNC(=O)c1ccc(CS(=O)(=O)Cc2ccccc2F)o1 (stereo unspecified),"inconclusive: 31.6 µM [inhibitor, partial curve]",
COC(=O)C1=C(C)NC(C)=C(C(=O)OCCSc2ccccc2)[C@@H]1C,"inconclusive: 3.16 µM [inhibitor, full curve]",
CCOc1ccccc1N1CC(C(=O)Nc2nccs2)CC1=O (stereo unspecified),"inconclusive: 5.62 µM [inhibitor, partial curve, poor fit]",
O=C1/C(=C\c2ccco2)SC(=S)N1Cc1ccccc1,active: 31.6 µM,
COc1cccc(C2CC(c3ccc(F)cc3)Nc3nc(N)nn32)c1 (stereo unspecified),"inconclusive: 0.891 µM [inhibitor, single point]",
COc1ccc2[nH]c(=O)c(CN(C3CCCCC3)C(c3nnnn3Cc3ccco3)C(C)C)cc2c1 (stereo unspecified),active: 28.2 µM,
O=C(Nc1ccc(S(=O)(=O)N2CCCCC2)cc1)c1ccc(CN2CCc3ccccc3C2)cc1,"inconclusive: 22.4 µM [inhibitor, partial curve, poor fit]",
Cc1cc2cc(CNC(=O)c3cccc([N+](=O)[O-])c3)ccc2n1C,inactive,
Cc1ccc(C)n1-c1ccc(N2CCOCC2)nc1,"inconclusive: 39.8 µM [inhibitor, single point]",
COc1cc(NC(=O)Nc2ccc3c(c2)OCO3)cc(OC)c1OC,inactive,
c1ccsc1,inactive,
Cc1cccc(Cn2ccc(NC(=O)c3ccc4c(c3)OCO4)n2)c1,"inconclusive: 4.47 µM [inhibitor, partial curve]",
CSc1ccc(/C=N/Nc2cccc(C(=O)O)c2)cc1,active: 31.6 µM,
CCc1ccc(OCC(=O)NC2CC(C)(C)NC(C)(C)C2)cc1,"inconclusive: 35.5 µM [inhibitor, single point]",
CCCCCNC(=O)c1ccc2c(=O)[nH]c3c(C(=O)NCC4CCCO4)sc(=S)n3c2c1 (stereo unspecified),"inconclusive: 0.141 µM [inhibitor, full curve, poor fit]",
COc1ccc(Cc2nnc(N/N=C/c3ccc(O)cc3)[nH]c2=O)cc1OC,inactive,
C#CCNC(=O)C1=C[C@@H](C)C[C@@H](OCc2ccc(CO)cc2)O1,"inconclusive: 0.0316 µM [inhibitor, full curve]",
COc1cc(C(=O)Nc2oc(-c3ccccc3)c(-c3ccccc3)c2C#N)cc(OC)c1OC,"inconclusive: 0.199 µM [inhibitor, full curve, poor fit]",
Cc1cc(=O)c2cc3nc(-c4cccnc4)oc3c(Br)c2o1,"inconclusive: 28.2 µM [inhibitor, partial curve]",
Cc1ccc(C)c(-c2cc(C(=O)Nc3nccs3)c3ccccc3n2)c1,"inconclusive: 39.8 µM [inhibitor, single point]",
CC(C)C(CC(=O)NCc1ccco1)c1ccco1 (stereo unspecified),,inconclusive: -31.3% [inhibitor]

# A draw from above in order of count of non-hydrogen atoms, low to high:
SMILES,Potency,"activity, negative = inhibition"
COc1cccc(C2CC(c3ccc(F)cc3)Nc3nc(N)nn32)c1 (stereo unspecified),"inconclusive: 0.891 µM [inhibitor, single point]",
COc1cc(C(=O)Nc2oc(-c3ccccc3)c(-c3ccccc3)c2C#N)cc(OC)c1OC,"inconclusive: 0.199 µM [inhibitor, full curve, poor fit]",
COc1ccc2[nH]c(=O)c(CN(C3CCCCC3)C(c3nnnn3Cc3ccco3)C(C)C)cc2c1 (stereo unspecified),active: 28.2 µM,
